Source: the supplement of paper PMC6411743
± gives the standard deviation of the averaged measurements. This is one part of the list.

Sequences of proteins named here, by UniProt entry; tags and fusion partners are left off. A change or cut given only in a name is not applied to a line headed by its entry.
UniProt P62070: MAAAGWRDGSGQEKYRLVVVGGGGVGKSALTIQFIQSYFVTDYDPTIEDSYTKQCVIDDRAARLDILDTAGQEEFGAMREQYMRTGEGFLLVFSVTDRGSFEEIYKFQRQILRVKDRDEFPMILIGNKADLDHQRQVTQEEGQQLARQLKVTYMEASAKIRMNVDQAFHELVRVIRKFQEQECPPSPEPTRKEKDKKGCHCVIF
UniProt Q5T7M9: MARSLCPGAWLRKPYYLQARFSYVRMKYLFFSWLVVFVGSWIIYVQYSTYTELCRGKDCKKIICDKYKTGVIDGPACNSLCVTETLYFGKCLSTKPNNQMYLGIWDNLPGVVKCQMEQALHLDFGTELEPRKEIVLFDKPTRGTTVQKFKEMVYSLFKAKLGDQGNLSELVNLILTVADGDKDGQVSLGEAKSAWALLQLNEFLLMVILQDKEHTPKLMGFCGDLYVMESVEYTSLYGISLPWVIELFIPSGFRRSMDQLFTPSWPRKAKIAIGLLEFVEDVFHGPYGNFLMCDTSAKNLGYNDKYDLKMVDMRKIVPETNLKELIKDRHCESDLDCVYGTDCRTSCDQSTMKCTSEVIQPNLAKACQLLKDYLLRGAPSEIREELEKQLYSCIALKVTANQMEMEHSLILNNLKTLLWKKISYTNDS
UniProt P15289: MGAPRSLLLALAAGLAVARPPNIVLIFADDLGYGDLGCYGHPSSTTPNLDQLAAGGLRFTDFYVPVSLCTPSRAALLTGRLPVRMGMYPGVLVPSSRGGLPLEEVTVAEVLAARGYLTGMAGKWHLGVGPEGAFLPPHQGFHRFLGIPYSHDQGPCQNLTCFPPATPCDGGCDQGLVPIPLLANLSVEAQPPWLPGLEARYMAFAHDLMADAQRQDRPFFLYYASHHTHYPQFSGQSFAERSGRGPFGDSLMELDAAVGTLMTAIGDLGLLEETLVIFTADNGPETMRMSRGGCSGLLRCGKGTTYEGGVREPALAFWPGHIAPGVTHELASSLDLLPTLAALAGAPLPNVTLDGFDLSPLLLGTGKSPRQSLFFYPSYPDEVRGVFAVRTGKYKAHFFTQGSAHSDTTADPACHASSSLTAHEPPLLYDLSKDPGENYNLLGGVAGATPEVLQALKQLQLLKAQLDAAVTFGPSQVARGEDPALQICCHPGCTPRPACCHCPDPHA
UniProt Q92544: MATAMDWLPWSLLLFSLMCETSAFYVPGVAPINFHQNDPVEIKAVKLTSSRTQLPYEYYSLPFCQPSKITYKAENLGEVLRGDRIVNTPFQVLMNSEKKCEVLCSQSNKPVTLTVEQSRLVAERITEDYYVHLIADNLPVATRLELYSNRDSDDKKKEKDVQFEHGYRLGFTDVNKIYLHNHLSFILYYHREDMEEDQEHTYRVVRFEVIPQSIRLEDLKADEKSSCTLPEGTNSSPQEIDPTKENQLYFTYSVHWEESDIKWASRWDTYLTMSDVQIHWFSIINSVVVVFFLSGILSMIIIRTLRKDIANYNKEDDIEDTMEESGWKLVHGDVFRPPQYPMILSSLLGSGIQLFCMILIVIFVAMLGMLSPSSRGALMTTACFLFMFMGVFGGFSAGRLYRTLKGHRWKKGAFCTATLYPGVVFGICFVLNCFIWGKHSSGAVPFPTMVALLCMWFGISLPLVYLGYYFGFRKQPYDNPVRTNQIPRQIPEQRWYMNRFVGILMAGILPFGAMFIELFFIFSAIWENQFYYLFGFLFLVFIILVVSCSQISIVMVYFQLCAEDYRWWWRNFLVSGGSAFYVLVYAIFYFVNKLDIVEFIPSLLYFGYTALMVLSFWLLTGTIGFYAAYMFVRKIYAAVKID
UniProt Q9UHX1: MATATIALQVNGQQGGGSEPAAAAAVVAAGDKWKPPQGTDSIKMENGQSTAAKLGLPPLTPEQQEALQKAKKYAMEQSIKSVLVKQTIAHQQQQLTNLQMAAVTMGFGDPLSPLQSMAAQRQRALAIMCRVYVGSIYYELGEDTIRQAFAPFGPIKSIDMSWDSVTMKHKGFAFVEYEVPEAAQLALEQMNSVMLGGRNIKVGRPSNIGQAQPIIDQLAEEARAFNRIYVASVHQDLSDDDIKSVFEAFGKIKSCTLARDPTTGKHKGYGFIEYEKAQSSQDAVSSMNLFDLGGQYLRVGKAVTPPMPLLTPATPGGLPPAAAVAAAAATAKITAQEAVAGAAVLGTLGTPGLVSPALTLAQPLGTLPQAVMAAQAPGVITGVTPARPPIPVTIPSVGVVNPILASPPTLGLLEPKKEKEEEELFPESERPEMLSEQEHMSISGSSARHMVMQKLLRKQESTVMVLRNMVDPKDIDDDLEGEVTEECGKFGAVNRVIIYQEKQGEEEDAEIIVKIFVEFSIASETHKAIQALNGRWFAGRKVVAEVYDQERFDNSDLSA

Compound: Nc1nc2c(ncn2[C@@H]2O[C@H](COP(=O)(O)OP(=O)(O)OP(=O)(O)O)[C@@H](O)[C@H]2O)c(=O)[nH]1 [guanosine triphosphate]
Assay: NP40-soluble protein abundance relative to vehicle (solubility fold change) (ratio); higher = more soluble protein in presence of GTP
Method: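 Solubility proteome profiling in Jurkat crude lysate. Lysate was treated with Mg-GTP (0.1-10 mM) for 10 min at room temperature and 3 min at 37 °C, then solubilised with 0.8% NP40 and benzonase, followed by ultracentrifugation. Proteins were quantified by TMT10 LC-MS/MS; the value is the NP40-soluble abundance relative to the NP40-processed vehicle, from 3 independent experiments.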

## A0A0C4DGH2|P62070 and related entries (UniProt P62070)
concentration: 0.1mM
  NP40-soluble protein abundance: 0.9883 ± 0.0072
concentration: 0.5mM
  NP40-soluble protein abundance: 0.967 ± 0.079
concentration: 1mM
  NP40-soluble protein abundance: 0.948 ± 0.11
concentration: 2mM
  NP40-soluble protein abundance: 0.903 ± 0.042
concentration: 4mM
  NP40-soluble protein abundance: 0.878 ± 0.043
concentration: 6mM
  NP40-soluble protein abundance: 0.888 ± 0.079
concentration: 8mM
  NP40-soluble protein abundance: 0.919 ± 0.061
concentration: 10mM
  NP40-soluble protein abundance: 0.862 ± 0.012

## A0A087WZ97|A0A087WZK6|A0A087X2C2|Q5T7M9 (UniProt Q5T7M9)
concentration: 0.1mM
  NP40-soluble protein abundance: 1.07 ± 0.05
concentration: 0.5mM
  NP40-soluble protein abundance: 1.06 ± 0.017
concentration: 1mM
  NP40-soluble protein abundance: 1.14 ± 0.1
concentration: 2mM
  NP40-soluble protein abundance: 1.07 ± 0.068
concentration: 4mM
  NP40-soluble protein abundance: 1.05 ± 0.1
concentration: 6mM
  NP40-soluble protein abundance: 0.947 ± 0.065
concentration: 8mM
  NP40-soluble protein abundance: 1.02 ± 0.054
concentration: 10mM
  NP40-soluble protein abundance: 0.983 ± 0.04

## A0A0C4DFZ2|P15289 and related entries (UniProt P15289)
concentration: 0.1mM
  NP40-soluble protein abundance: 1.04 ± 0.011
concentration: 0.5mM
  NP40-soluble protein abundance: 1.01 ± 0.045
concentration: 1mM
  NP40-soluble protein abundance: 0.955 ± 0.061
concentration: 2mM
  NP40-soluble protein abundance: 0.973 ± 0.05
concentration: 4mM
  NP40-soluble protein abundance: 0.937 ± 0.06
concentration: 6mM
  NP40-soluble protein abundance: 0.943 ± 0.051
concentration: 8mM
  NP40-soluble protein abundance: 0.949 ± 0.049
concentration: 10mM
  NP40-soluble protein abundance: 0.941 ± 0.05

## A0A0C4DFM1|Q92544 (UniProt Q92544)
concentration: 0.1mM
  NP40-soluble protein abundance: 1.04 ± 0.088
concentration: 0.5mM
  NP40-soluble protein abundance: 1.07 ± 0.13
concentration: 1mM
  NP40-soluble protein abundance: 0.929 ± 0.092
concentration: 2mM
  NP40-soluble protein abundance: 0.958 ± 0.12
concentration: 4mM
  NP40-soluble protein abundance: 0.943 ± 0.099
concentration: 6mM
  NP40-soluble protein abundance: 0.905 ± 0.085
concentration: 8mM
  NP40-soluble protein abundance: 0.894 ± 0.076
concentration: 10mM
  NP40-soluble protein abundance: 0.878 ± 0.14

## A0A0J9YVP6|E9PQ56 and related entries (UniProt Q9UHX1)
concentration: 0.1mM
  NP40-soluble protein abundance: 1.03 ± 0.035
concentration: 0.5mM
  NP40-soluble protein abundance: 1.12 ± 0.062
concentration: 1mM
  NP40-soluble protein abundance: 1.1 ± 0.057
concentration: 2mM
  NP40-soluble protein abundance: 1.09 ± 0.042
concentration: 4mM
  NP40-soluble protein abundance: 1.06 ± 0.05
concentration: 6mM
  NP40-soluble protein abundance: 1.08 ± 0.06
concentration: 8mM
  NP40-soluble protein abundance: 1.08 ± 0.076
concentration: 10mM
  NP40-soluble protein abundance: 1.07 ± 0.083
